# Test results: patent US20210069108A1, “METHODS FOR PREVENTION AND TREATMENT OF PRESSURE ULCERS CAUSED BY ISCHEMIA USING CONTACT VASODILATORS” (priority 2018, published 2021)
# At least one structure is not confirmed: it was looked up by name or label, or the drawing left a doubt.
# Test system: pressure ulcer
# Assay: topical composition applied to one pressure ulcer of a patient, another pressure ulcer left untreated
# Type: in vivo
# Conditions: patient diagnosed with pressure ulcers
# Description: A patient is diagnosed with pressure ulcers. A topical composition comprising the calcium channel blocker nifedipine is applied to one pressure ulcer while another pressure ulcer is left untreated. […] A patient is diagnosed with pressure ulcers. A topical composition comprising the ACE inhibitor enalapril is applied to one pressure ulcer while another pressure ulcer is left untreated. […] A patient is diagnosed with pressure ulcers. A topical composition comprising the angiotensin receptor blocker losartan is applied to one pressure ulcer while another pressure ulcer is left untreated.
smiles,measurement,value
COC(=O)C1=C(C)NC(C)=C(C(=O)OC)C1c1ccccc1[N+](=O)[O-] [nifedipine],healing of the treated pressure ulcer compared with the untreated pressure ulcer,heal faster than the untreated pressure ulcer
